Among the data in publication PMC4133157 are binding values, retold here.

The target of this experiment is T1, 3XFLAG::PAT-2 (HEK293T) (C. elegans) (UniProt P34446).
T1 sequence: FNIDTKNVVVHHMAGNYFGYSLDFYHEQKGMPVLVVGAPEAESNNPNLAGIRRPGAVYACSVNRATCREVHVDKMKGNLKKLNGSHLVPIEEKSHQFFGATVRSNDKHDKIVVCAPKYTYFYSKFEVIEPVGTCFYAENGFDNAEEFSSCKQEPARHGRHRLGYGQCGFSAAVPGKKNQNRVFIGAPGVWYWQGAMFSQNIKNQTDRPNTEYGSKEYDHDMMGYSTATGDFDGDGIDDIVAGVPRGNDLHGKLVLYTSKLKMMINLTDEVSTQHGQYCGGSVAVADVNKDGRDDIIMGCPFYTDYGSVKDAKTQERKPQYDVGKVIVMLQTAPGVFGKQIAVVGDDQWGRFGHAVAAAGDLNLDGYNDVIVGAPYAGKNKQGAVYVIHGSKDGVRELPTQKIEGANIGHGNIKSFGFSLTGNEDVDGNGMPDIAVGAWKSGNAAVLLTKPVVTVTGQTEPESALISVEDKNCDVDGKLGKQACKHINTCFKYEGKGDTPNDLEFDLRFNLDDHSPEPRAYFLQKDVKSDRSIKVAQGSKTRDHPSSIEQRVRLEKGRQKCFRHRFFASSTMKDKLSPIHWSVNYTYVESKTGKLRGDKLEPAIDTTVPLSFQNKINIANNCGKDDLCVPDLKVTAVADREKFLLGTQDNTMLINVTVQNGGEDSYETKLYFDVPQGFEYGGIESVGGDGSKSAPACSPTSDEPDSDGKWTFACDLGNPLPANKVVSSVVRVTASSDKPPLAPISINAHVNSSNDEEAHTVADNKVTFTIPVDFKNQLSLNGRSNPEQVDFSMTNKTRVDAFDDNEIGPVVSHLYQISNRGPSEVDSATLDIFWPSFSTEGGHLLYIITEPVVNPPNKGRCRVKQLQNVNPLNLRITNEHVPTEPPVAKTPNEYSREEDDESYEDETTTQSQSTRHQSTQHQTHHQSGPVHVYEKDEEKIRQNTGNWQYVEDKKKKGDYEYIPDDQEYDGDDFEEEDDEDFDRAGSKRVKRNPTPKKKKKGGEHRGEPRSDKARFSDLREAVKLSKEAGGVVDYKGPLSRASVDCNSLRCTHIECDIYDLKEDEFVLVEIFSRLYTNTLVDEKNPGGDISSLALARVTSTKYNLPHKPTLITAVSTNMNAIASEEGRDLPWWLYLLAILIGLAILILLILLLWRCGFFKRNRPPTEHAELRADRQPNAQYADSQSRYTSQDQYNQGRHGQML
Briefly: co-IP; FLAG-tagged receptor on transfected HEK293T cells incubated with 10x concentrated conditioned medium holding the HA- and Gaussia luciferase-tagged ligand, 4 hours at 4°C; cells lysed in TNTE buffer (0.5% Triton X-100), anti-FLAG immunoprecipitation, luciferase activity of the washed immunoprecipitate, normalised to receptor level.

These are yes or no findings as the source states them, for the method shown. Binding seen in cells or lysates may run through a third protein. Tags and fused reporters may be left off the sequences shown.

Take “HA::MADD-4B::Gaussia luciferase (C. elegans) (ligand)”: the binding result is “no binding”.
